Among the data in PMC12003248, “ERCC6L2 mitigates replication stress and promotes centromere stability” (Cell Reports, 2023) are binding values, retold here.

The chains behind the UniProt entries cited, without tags or fusion partners.
UniProt P12004: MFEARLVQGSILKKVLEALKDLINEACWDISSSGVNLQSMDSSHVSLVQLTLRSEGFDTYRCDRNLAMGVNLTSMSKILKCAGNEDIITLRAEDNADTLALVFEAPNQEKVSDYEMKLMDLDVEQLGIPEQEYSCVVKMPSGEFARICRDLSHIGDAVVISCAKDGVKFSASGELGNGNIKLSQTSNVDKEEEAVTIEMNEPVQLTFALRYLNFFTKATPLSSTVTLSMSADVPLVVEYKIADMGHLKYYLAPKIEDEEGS

These are yes or no findings as the source states them, for the method shown. Binding seen in cells or lysates may run through a third protein. Some entries that bind do so weakly or less than the wild type. Sequences can lack the tags named with a protein.

This test deals with T1, Strep-tagged ERCC6L2^701−1053 (human) (UniProt Q5T890).
T1 sequence: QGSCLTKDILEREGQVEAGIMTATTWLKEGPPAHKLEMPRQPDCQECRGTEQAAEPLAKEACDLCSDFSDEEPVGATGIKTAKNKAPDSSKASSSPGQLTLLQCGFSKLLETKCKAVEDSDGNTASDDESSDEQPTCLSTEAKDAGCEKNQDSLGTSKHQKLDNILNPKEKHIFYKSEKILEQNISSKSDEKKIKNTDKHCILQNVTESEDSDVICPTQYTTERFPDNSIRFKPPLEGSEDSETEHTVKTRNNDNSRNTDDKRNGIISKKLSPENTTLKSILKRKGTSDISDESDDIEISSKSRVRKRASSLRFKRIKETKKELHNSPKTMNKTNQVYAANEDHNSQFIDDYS
Put plainly: co-IP; extracts of cell lines expressing Strep-tagged ERCC6L2 constructs applied to StrepTactin Sepharose beads; lysis buffer 50 mM Tris pH 8, 150 mM NaCl, 1 mM DTT, 1% Triton X-, Benzonase; eluted with biotin; Western blot.

Consider “Endogenous PCNA (from UniProt P12004 1-261)”, for which the binding entry is on record as “binds”.
